Results on seven molecules are retold here after paper PMC4683276.

Sequences of proteins named here, by UniProt entry; tags and fusion partners are left off. Residues count along the entry.
UniProt Q01974, residues 34-943: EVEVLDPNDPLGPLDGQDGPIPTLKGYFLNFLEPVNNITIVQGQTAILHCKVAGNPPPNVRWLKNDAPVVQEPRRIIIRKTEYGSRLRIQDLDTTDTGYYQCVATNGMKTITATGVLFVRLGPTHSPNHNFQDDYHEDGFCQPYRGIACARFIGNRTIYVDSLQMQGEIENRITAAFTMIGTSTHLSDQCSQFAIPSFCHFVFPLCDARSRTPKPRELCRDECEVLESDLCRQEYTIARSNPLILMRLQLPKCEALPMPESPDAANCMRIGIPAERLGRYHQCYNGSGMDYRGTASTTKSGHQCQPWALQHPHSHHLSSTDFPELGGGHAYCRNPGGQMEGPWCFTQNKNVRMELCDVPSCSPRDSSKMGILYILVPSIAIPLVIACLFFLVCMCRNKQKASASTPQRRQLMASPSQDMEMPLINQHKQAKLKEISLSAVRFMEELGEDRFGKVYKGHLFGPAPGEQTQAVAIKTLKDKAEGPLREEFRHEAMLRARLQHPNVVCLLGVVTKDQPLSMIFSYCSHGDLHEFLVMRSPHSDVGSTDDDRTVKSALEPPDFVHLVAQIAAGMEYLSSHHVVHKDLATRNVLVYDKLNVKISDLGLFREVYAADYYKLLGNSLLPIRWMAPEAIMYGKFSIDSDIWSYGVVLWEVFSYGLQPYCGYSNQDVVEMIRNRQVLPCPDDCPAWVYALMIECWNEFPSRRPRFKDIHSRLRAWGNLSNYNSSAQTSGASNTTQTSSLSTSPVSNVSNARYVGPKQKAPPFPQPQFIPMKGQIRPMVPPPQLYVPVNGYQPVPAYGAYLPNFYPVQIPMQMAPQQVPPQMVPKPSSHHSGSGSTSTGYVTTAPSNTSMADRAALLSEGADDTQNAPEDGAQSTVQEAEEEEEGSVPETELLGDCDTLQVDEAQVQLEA
UniProt Q01973, residues 30-937: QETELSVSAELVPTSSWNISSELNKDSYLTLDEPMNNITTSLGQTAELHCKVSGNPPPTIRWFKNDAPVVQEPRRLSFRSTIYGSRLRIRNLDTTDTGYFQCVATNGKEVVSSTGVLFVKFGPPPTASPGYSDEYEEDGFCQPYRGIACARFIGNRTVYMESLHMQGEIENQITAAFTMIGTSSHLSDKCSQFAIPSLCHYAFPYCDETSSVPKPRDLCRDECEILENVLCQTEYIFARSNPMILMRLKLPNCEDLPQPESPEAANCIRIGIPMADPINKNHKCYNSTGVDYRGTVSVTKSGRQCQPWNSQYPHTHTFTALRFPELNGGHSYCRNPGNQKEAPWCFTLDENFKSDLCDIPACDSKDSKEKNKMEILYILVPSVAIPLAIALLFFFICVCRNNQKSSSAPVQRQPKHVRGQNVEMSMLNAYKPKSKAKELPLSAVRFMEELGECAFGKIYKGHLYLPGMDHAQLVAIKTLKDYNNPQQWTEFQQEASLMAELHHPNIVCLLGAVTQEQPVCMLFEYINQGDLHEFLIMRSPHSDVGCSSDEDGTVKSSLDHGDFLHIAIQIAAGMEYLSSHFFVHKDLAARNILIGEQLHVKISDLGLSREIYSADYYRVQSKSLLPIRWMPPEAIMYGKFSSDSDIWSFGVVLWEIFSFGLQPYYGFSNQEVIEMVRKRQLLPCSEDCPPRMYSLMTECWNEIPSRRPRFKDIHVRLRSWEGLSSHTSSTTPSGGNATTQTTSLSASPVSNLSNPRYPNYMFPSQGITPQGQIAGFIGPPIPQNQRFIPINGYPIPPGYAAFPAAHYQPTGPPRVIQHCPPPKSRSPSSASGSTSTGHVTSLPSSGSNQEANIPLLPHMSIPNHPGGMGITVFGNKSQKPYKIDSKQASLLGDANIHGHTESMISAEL
UniProt Q9Z138, residues 34-944: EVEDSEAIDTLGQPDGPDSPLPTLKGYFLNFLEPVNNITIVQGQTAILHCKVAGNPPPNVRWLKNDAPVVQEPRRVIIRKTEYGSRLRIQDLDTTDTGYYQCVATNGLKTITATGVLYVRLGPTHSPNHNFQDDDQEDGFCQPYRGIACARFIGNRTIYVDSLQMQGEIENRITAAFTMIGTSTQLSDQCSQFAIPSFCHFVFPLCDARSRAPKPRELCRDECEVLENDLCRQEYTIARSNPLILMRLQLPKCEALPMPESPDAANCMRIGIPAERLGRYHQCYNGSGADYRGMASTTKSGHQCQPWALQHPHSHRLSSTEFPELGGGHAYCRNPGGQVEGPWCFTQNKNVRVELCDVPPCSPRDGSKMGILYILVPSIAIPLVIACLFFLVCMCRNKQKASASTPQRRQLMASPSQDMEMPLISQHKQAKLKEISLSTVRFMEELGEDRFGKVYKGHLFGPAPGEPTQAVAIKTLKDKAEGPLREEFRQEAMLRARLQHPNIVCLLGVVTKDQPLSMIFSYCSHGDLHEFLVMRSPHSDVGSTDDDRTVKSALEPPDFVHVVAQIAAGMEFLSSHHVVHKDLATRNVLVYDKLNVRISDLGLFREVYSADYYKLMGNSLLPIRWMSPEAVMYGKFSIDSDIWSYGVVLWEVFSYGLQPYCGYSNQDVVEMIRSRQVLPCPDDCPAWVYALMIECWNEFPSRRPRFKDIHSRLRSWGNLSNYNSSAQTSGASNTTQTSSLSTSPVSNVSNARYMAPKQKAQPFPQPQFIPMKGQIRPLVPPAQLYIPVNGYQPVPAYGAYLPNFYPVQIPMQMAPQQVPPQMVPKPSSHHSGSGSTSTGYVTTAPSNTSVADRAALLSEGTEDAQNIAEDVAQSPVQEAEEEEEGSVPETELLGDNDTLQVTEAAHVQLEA

Results are given in words; binding and its absence hold for the method and conditions named. In cells and extracts the contact can be indirect. Some entries that bind do so weakly or less than the wild type. For some assays here: Tags and fused reporters may be left off the sequences shown.

Assay [1] addresses T1, PTK7 (protein tyrosine kinase 7), full-length human construct (human) (UniProt Q13308).
T1 sequence: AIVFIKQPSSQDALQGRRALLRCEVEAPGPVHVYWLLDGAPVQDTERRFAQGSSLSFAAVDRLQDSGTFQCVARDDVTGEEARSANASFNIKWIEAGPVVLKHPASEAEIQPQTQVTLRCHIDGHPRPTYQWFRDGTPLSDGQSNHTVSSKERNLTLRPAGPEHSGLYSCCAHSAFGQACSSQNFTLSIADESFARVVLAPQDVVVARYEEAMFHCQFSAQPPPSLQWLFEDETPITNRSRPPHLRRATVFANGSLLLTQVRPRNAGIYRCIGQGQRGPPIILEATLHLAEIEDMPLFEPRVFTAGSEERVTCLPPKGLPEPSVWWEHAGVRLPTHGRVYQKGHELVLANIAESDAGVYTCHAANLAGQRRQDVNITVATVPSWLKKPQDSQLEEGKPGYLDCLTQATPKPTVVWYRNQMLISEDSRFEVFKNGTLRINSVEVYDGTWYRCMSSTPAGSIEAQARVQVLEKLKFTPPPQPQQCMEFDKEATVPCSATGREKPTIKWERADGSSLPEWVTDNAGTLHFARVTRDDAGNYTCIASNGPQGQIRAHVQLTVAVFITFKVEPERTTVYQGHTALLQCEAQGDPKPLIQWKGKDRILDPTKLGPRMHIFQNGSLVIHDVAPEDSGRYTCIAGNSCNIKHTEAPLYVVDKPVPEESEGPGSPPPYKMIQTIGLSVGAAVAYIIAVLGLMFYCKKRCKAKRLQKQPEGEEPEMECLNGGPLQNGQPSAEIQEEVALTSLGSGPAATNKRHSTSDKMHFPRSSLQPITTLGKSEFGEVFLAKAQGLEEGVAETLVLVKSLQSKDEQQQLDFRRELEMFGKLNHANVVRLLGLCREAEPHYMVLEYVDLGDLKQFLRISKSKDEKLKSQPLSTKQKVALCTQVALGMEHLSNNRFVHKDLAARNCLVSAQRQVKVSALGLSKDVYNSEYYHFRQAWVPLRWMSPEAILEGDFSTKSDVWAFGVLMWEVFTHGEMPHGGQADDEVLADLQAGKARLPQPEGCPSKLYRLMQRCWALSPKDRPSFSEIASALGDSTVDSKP
The assay can be described thus: co-IP; co-expression in HEK 293T cells; 1% Triton X-100 lysis buffer (50 mM Hepes, 150 mM NaCl); immunoprecipitation with anti-PTK7 antibody and protein G-agarose; Western blot (Fig. 1A, C, D). (In western blotting, separated proteins are transferred to a membrane and probed.)

Another assay has as its target T2, HA-WNT5A (UniProt P41221).
T2 sequence: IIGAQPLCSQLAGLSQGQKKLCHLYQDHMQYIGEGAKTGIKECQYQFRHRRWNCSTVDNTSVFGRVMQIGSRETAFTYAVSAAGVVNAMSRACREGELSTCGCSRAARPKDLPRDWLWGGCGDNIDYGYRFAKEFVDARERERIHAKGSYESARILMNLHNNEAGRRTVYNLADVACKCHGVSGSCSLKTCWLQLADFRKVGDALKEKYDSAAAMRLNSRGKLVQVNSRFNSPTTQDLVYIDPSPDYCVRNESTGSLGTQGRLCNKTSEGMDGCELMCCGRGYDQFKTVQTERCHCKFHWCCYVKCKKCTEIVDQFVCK
The assay can be described thus: co-IP; PTK7, FLAG-ROR2 and HA-WNT5A co-expressed in HEK 293T cells; immunoprecipitation with anti-HA antibody; Western blot (Fig. 2E).

Assay [2] concerns the target T3, PTK7, endogenous in mouse embryonic fibroblasts (mouse (endogenous in MEFs)) (UniProt Q8BKG3).
T3 sequence: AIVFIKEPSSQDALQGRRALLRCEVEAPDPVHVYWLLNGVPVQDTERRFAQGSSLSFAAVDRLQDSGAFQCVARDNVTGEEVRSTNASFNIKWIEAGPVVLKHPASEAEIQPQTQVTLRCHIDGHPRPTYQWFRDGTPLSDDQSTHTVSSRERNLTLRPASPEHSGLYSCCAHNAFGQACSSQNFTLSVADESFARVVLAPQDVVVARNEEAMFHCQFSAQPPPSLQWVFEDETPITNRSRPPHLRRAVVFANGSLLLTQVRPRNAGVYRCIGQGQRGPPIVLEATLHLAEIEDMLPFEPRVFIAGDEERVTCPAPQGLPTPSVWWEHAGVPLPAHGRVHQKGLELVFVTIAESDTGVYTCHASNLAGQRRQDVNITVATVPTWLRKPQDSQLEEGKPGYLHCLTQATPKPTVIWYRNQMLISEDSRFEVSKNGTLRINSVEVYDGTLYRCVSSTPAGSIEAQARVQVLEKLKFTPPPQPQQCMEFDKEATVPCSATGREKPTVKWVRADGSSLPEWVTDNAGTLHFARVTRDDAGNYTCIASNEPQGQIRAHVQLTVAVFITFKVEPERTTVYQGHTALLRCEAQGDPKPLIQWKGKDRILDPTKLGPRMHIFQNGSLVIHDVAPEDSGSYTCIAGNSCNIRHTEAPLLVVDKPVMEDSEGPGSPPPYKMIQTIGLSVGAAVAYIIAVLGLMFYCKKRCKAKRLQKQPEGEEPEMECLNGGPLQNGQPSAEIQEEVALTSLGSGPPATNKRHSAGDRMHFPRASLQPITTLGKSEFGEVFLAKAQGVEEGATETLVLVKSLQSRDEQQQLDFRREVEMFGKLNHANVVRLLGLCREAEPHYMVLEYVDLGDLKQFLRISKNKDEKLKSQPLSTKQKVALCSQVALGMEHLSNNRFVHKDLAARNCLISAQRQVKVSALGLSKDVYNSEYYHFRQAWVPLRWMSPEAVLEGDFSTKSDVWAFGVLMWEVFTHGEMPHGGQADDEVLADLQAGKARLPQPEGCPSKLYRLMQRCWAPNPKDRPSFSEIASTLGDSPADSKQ
Briefly: co-IP; endogenous proteins of MEFs (expressing or not expressing Ptk7), stimulated with WNT5A (200 ng/ml) or left unstimulated; immunoprecipitation with anti-PTK7 antibody or an isotype-matched control IgG; Western blot (Fig. 1F).

The next assay addresses T4, MYC-WNT5A (UniProt P41221).
T4 sequence: T2 sequence
The assay can be described thus: co-IP; full and truncated PTK7 co-expressed with MYC-WNT5A in HEK 293T cells; immunoprecipitation with anti-MYC antibody; Western blot (Fig. 2C).

A further assay deals with T5, FLAG-PTK7 (human) (UniProt Q13308).
T5 sequence: T1 sequence
The assay can be described thus: co-IP; co-expression in HEK 293T cells; immunoprecipitation with anti-FLAG antibody; Western blot (Fig. 2A, B, D); in Fig. 2D also in cells transfected with a siRNA against ROR2.

Assay [3] concerns the target FLAG-ROR2 (receptor tyrosine kinase-like orphan receptor 2) (UniProt Q01974). Described as above.

For “FLAG-ROR1 (from UniProt Q01973 30-937) (receptor)”, the binding entry in assay [1] is recorded as “no binding”.

On to “FLAG-ROR2 (receptor tyrosine kinase-like orphan receptor 2) (from UniProt Q01974 34-943)”, for which the binding result (with HA-WNT5A; in assay [1]) was “binds” in each case.

Consider “ROR2, endogenous in mouse embryonic fibroblasts (from UniProt Q9Z138 34-944) (receptor)”, for which, in assay [2], the binding entry was “binds”.

B1: PTK7 (protein tyrosine kinase 7), full-length human construct (receptor, UniProt Q13308 31-1070)
chain: T1 sequence
With B1, the binding result with MYC-WNT5A is recorded as “binds”.

B2: HA-WNT1 (ligand, UniProt P04628 28-370)
chain: ANSSGRWWGIVNVASSTNLLTDSKSLQLVLEPSLQLLSRKQRRLIRQNPGILHSVSGGLQSAVRECKWQFRNRRWNCPTAPGPHLFGKIVNRGCRETAFIFAITSAGVTHSVARSCSEGSIESCTCDYRRRGPGGPDWHWGGCSDNIDFGRLFGREFVDSGEKGRDLRFLMNLHNNEAGRTTVFSEMRQECKCHGMSGSCTVRTCWMRLPTLRAVGDVLRDRFDGASRVLYGNRGSNRASRAELLRLEPEDPAHKPPSPHDLVYFEKSPNFCTYSGRLGTAGTAGRACNSSSPALDGCELLCCGRGHRTRTQRVTERCNCTFHWCCHVSCRNCTHTRVLHECL
With B2, the binding result with FLAG-PTK7 (human) is recorded as “no binding”.

B3: MYC-WNT5A (ligand, UniProt P41221 62-380)
chain: T2 sequence
With B3, the binding entry in assay [3] was “binds”.

B4: HA-WNT5A (ligand, UniProt P41221 62-380)
chain: T2 sequence
Turning to B4, in the assay with FLAG-PTK7 (human), the binding result was “binds”.
